PubChem BioAssay AID652243 – Drosophila RNAi Screening Center | 2013
Test: 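Fly regulators of androgen-dependent reporter output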 (primary screen). System: Drosophila S2R+ cells. Reagent: long dsRNA against Drosophila genes. Timing: 72 h (48 h, then 24 h hormone). Treatment: synthetic androgen R1881 at 10 nM for 24 h. Measured: 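Per-well raw luminescence of the androgen-driven firefly reporter and of the Renilla control, two replicates each, without normalisation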. Scale: firefly reporter light: higher = more light from androgen-responsive reporter; Renilla control light: higher = more constitutive control signal (cell number, transfection). Active means: 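Hit when the log firefly-to-Renilla ratio dropped or increased by a fixed fold versus the mean of GFP or LacZ controls across duplicate plates; lowering cut given as 1.5 and as 3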. Meaning of the calls: active = hit: reporter lowered or raised; inactive = no hit.
In all, the deposit lists about 24,000 reagents; this is a random part of those that have a named target and a result. Of all reagents, 246 (1%) are marked active. 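Plates not normalised; calls are printed but the firefly/Renilla ratio behind them is not deposited; fold cut for lowering reported inconsistently.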 Raw values vary from plate to plate and are shown uncorrected. A plus sign joins genes that one reagent is predicted to hit. The record does not give: the amount of reagent.

Target gene,dsRNA,"firefly reporter light, replicate 1","firefly reporter light, replicate 2","Renilla control light, replicate 1","Renilla control light, replicate 2",Call
Dh31,DRSC02196,1.90e5,2.07e5,1.74e6,1.58e6,inactive
CG5167,DRSC15728,1.78e5,1.61e5,2.37e6,2.39e6,inactive
CG32109,DRSC09816,3.02e5,2.09e5,3.29e6,2.32e6,inactive
Mekk1,DRSC16302,66671,1.07e5,6.28e5,6.14e5,inactive
Mekk1,DRSC16303,2.15e5,2.59e5,3.06e6,3.02e6,inactive
Mekk1,DRSC36752,,,,,inactive
Mekk1,DRSC36753,,,,,inactive
CG34426,DRSC09977,2.22e5,2.90e5,2.76e6,2.27e6,inactive
Atg8a,DRSC18024,4.24e5,4.39e5,2.67e6,2.62e6,inactive
Atg8a,DRSC24298,7.84e5,1.28e6,1.04e6,1.35e6,inactive
peng,DRSC20583,1.82e5,1.40e5,6.69e5,4.90e5,inactive
peng,DRSC29638,4.87e5,5.92e5,7.25e5,7.25e5,inactive
Dap160,DRSC03313,7.69e5,6.78e5,2.82e6,2.63e6,inactive
Dap160,DRSC27467,7.04e5,6.11e5,8.80e5,8.58e5,inactive
Sec8,DRSC12300,33234,46998,3.86e5,4.75e5,inactive
qtc,DRSC02364,8.12e5,9.38e5,1.98e6,2.07e6,inactive
qtc,DRSC02365,71814,62861,1.19e6,8.48e5,inactive
qtc,DRSC27377,3.09e5,3.97e5,5.85e5,6.93e5,inactive
CG34190,DRSC38738,8.63e5,2.86e5,1.48e6,1.02e6,inactive
Mcm10,DRSC03162,9.23e5,5.24e5,2.49e6,1.70e6,inactive
Mcm10,DRSC27996,5.19e5,4.58e5,1.61e6,1.40e6,inactive
CG14607,DRSC12551,1.18e5,1.26e5,2.26e6,1.80e6,inactive
exd,DRSC20330,4.74e5,4.34e5,4.15e6,3.66e6,inactive
exd,DRSC30099,1.10e6,9.20e5,8.66e5,8.62e5,inactive
Tpst,DRSC18989,5.59e5,1.54e5,5.84e5,1.69e5,inactive
Tpst,DRSC19696,5.03e5,5.43e5,4.08e6,4.03e6,inactive
Tpst,DRSC19723,1.15e5,1.27e5,3.25e6,4.15e6,inactive
Tpst,DRSC24990,1.83e6,1.71e6,1.81e6,1.84e6,inactive
Tpst,DRSC25122,8.12e5,6.16e5,8.89e5,6.31e5,inactive
Tpst,DRSC25422,8.68e5,1.09e6,1.07e6,1.33e6,inactive
CG32266,DRSC08062,1.55e5,1.78e5,4.30e5,4.56e5,inactive
CG32266,DRSC27644,3.65e5,2.54e5,5.85e5,8.02e5,inactive
acs,DRSC08185,1.76e5,2.15e5,2.27e6,2.42e6,inactive
acs,DRSC27629,2.60e5,2.83e5,6.21e5,9.34e5,inactive
CG4461,DRSC10423,2.99e5,1.60e5,2.52e6,1.65e6,inactive
CG4461,DRSC29266,3.96e5,5.63e5,1.55e6,1.79e6,inactive
CG4461,DRSC39049,8.24e5,7.55e5,2.50e6,1.95e6,inactive
BomT2,DRSC06631,1.54e5,1.33e5,3.36e6,3.36e6,inactive
Spag1,DRSC15331,1.67e5,1.41e5,1.50e6,2.70e6,inactive
CG8089,DRSC07074,42440,66810,9.45e5,9.45e5,inactive
Pi3K21B,DRSC00771,5.07e5,5.90e5,1.91e6,9.88e5,inactive
Pi3K21B,DRSC36731,,,,,inactive
Pi3K21B,DRSC36732,,,,,inactive
psidin,DRSC15660,2.47e5,2.32e5,3.45e6,2.63e6,inactive
CG33552,DRSC37909,4.06e5,2.56e5,1.56e6,1.30e6,inactive
CG42662 + CG30080,DRSC05571,1.51e5,2.70e5,3.24e5,3.82e5,inactive
ifc,DRSC03549,9.25e5,8.84e5,1.57e6,1.75e6,inactive
CG13605,DRSC14608,80060,70299,6.25e5,4.02e5,inactive
kermit,DRSC06074,1.06e6,1.05e6,1.39e6,1.38e6,inactive
kermit,DRSC25874,3.99e5,3.25e5,7.45e5,6.24e5,inactive
Taz,DRSC07704,4.59e5,5.34e5,2.71e6,2.58e6,inactive
Taz,DRSC22625,8.08e5,9.44e5,1.88e6,2.19e6,inactive
Taz,DRSC27100,3.52e5,2.10e5,7.45e5,3.27e5,inactive
dgt2,DRSC02548,2.53e5,2.74e5,1.50e6,1.42e6,inactive
dgt2,DRSC29741,3.52e5,3.51e5,1.00e6,1.12e6,inactive
CG4297,DRSC00651,85475,57192,5.77e5,7.83e5,inactive
CG13217,DRSC06339,3.52e5,3.05e5,1.90e6,2.08e6,inactive
Ncc69,DRSC10412,7.39e5,7.34e5,1.14e6,1.25e6,inactive
Ncc69,DRSC10413,2.85e5,3.64e5,2.29e6,2.17e6,inactive
Ncc69,DRSC23572,7.64e5,9.37e5,1.13e6,1.30e6,inactive
CG14566,DRSC11727,1.85e5,1.78e5,1.83e6,1.80e6,inactive
CG14566,DRSC25467,7.17e5,9.34e5,5.97e5,6.15e5,inactive
CG10311,DRSC14228,1.92e5,1.99e5,2.60e6,2.55e6,inactive
CG31898,DRSC01019,2.32e5,1.82e5,4.08e5,4.31e5,inactive
CG14420,DRSC17917,4.57e5,3.22e5,2.59e6,2.71e6,inactive
CG14420,DRSC25167,8.11e5,7.32e5,9.33e5,9.95e5,inactive
CecA1,DRSC16603,3.05e5,2.54e5,2.14e6,3.79e6,inactive
Miro,DRSC15795,92314,57366,5.77e5,5.03e5,inactive
Tbc1d22,DRSC15867,85258,62163,5.99e5,6.59e5,inactive
scrt,DRSC23001,93254,1.68e5,6.72e5,8.06e5,active
scrt,DRSC25792,4.35e5,3.85e5,1.01e6,6.78e5,inactive
CG12395,DRSC19453,2.55e5,2.94e5,1.92e6,1.49e6,inactive
CG42404,DRSC15558,1.62e5,1.55e5,1.96e6,2.30e6,inactive
Dyb,DRSC07208,4.50e5,2.86e5,3.26e6,2.46e6,inactive
Dyb,DRSC22862,9.82e5,1.03e6,1.36e6,1.91e6,inactive
Dyb,DRSC29699,6.47e5,5.71e5,1.63e6,1.41e6,inactive
